According to PMC6915754, “Protein components of ribonucleoprotein granules from Drosophila germ cells oligomerize and show distinct spatial organization during germline development” (Scientific Reports, 2019):
These are yes or no findings as the source states them, for the method shown. Tags and fused reporters may be left off the sequences shown.

B1: Tud domain 5 (amino acids 1153-1328 of Tudor) (domain or fragment, UniProt P25823 1153-1328)
chain: VNAKVDCEFVSKEKSNQGSNTSSTCSYTVNIFVNGASLRDMLVKAEFLTEVAPEIRVNLLAGQQIRGKFTSIRDMTSFKVQFDYGNNVNFLCTYDDAKFVKSNPNLARRFKEFYEGKSFALNVKNVCENNIVHLRPVMPLFMEDRRSFICPYPVVLSSFQALVVYTAKPYRVYVQP
B2: Tud domain 7 (amino acids 1605-1785 of Tudor) (domain or fragment, UniProt P25823 1605-1785)
chain: SKQAPAQEDPYKDLDCVVLSHCDNPAQFYVHPIDQLSKLNQLHENLQIVSPSLPQLMNVVNGADCVSMYSVDKCWYRAKIIDAELMVLLFIDYGNTDCVSDATDIKESMWSHIEPFCLPCALPIRPKGTADWVDAANGIFNESYSKVPRLEYLTQGDHYTTSYVNMYIDGEDVAKKLIADG
B3: Tud domain 8 (amino acids 1791-1964 of Tudor) (domain or fragment, UniProt P25823 1791-1964)
chain: EYLASGCSCYISHVNGICDFFIQLERDSKALELIELYLRKKDTLKPLEGFEKGLIVAALFEDDELWYRAQLQKELPDSRYEVLFIDYGNTSTTSKCLMLSEEIASLPSLSKKCSLQLPDAYISWSPEAEAKFAELTGEGELVFTTQLLKPGQDHVTIDLLLDGENIIDRLLPLC
B4: Tud domain 10 (amino acids 2140-2340 of Tudor) (domain or fragment, UniProt P25823 2140-2340)
chain: SLKIYEHLQKLVQAELKLIQKRNENSECIISYGNSPKSFYVQMKHNSADLDLIVKTLQSLKKEKLKKLIDPTTNSNGVCYSQEDACYYRCSIKSVLDPSQGFEVFLLDYGNTLVVPEVWQLPQEIEPIPSLALHCQLSKIPMDVSDEKLEEAFAALLEQHFGELYEITTQPNEDETKPLIAELRINYKDFVQELVSTVTGV

biological target: T1, GFP-Aub (functional and methylated, from fly ovaries) (Drosophila) (UniProt O76922); test: pull-down; GFP-Aub from fly ovaries held on anti-GFP agarose beads; partially purified His-SUMO Tud domains added; 50 µl reactions, 4 °C, 30 min, binding buffer PBS + 0.05% IGEPAL CA-630; 4 washes; bound domains detected by anti-His-tag western blot; both purified
T1 sequence (chain, methylated (sDMAs), positions not printed): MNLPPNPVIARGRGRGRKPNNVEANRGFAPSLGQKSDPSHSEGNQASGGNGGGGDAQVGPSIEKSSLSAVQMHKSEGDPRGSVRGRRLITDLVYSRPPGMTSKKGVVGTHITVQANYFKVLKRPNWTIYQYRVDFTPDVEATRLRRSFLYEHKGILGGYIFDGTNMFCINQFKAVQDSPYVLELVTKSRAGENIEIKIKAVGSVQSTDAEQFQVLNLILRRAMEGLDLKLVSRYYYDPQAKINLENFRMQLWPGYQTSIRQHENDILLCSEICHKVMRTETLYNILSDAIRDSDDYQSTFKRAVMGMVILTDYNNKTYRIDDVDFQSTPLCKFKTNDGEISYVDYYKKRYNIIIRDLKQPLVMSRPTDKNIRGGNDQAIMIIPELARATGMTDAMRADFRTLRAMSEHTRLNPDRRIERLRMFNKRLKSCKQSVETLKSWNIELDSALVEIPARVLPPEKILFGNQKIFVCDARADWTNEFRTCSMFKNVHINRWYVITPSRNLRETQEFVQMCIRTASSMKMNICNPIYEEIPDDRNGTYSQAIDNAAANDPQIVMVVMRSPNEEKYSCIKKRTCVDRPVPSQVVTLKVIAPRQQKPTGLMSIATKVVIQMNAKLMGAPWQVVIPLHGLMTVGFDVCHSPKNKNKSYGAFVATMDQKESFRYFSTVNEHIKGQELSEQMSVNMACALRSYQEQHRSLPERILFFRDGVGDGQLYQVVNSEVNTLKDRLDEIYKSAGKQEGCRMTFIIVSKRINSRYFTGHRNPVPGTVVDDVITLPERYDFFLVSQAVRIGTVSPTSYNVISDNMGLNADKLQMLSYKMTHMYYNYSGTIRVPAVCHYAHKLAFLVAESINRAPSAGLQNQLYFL

binding, no binding:
B1
B2
B3
B4
